Article PMC7819943, “Rice protein-binding microarrays: a tool to detect cis-acting elements near promoter regions in rice”
The other results are listed elsewhere or left out.

Sequences of proteins named here, by UniProt entry; tags and fusion partners are left off.
UniProt Q0JBA9, entry or part of it: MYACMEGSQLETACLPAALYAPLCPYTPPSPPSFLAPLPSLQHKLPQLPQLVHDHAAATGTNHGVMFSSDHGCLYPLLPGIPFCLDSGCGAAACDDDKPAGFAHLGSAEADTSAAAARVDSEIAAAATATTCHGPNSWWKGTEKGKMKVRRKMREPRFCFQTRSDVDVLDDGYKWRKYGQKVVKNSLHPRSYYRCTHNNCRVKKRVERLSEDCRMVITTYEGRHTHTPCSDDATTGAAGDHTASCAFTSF

Molecular target: OsWRKY34 (Oryza sativa, UniProt Q0JBA9 1-250)
Experiment: protein-binding microarray (RPBM); PBS, 2% BSA, 51.3 ng/ul salmon testes DNA, 50 uM zinc acetate, 200 nM TF, 25 C, 1 h; high values mean tight binding
Settings: protein: recombinant; tags: N-terminal polyhistidine and DsRed monomer fusion (pET32a); label: CyDye5-dUTP incorporated in the synthesized complementary strand; 3' TTTTT single-stranded linker to array surface; dsDNA, one strand shown
How it was run: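 In PBS with 2% BSA, salmon testes DNA and 50 µM zinc acetate, 200 nM protein was incubated on a custom Agilent array at 25 °C for 1 h and then washed off. The array had been made double-stranded by primer extension with Cy5-dUTP and blocked with 2% BSA. The proteins were transcription factors fused N-terminally to polyhistidine and DsRed, expressed in E. coli BL21-CodonPlus and purified on Ni–NTA. The binding signal is per-feature fluorescence intensity (arbitrary units) from an Axon 4000B scanner.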

| Sequence | binding signal |
| --- | --- |
| TTTCGGTTTCCCTTTCTTCATTCTTCTTCTTCTCATCCCACGGAGTCACCTAGTGCAG | 8210 fluorescence intensity (a.u.) |
| GGACGTACATATCCCTGTATCAATGCGCCTTTCTTGACGACGGAGTCACCTAGTGCAG | 10200 fluorescence intensity (a.u.) |
| CTTAATTTGCTGGTTGGTTTATCAGATACATCCAAATTCACGGAGTCACCTAGTGCAG | 8250 fluorescence intensity (a.u.) |
| ATATATATATATGATGTGCGCCGCGTTGTGTTTCGCTTTTCGGAGTCACCTAGTGCAG | 8140 fluorescence intensity (a.u.) |
| AACCTAACCACCAGTTGAGCTATTCTCACTTTGGTATTATCGGAGTCACCTAGTGCAG | 8320 fluorescence intensity (a.u.) |
| AAGTTTGGCTCTGCGTGTCTCTAAAAATTTTCAGTCTCCTCGGAGTCACCTAGTGCAG | 8190 fluorescence intensity (a.u.) |
| ATCTTTCGCCATACCTCCGCCGTAAAAGGACAGGTTACAACGGAGTCACCTAGTGCAG | 9160 fluorescence intensity (a.u.) |
| AACACATCACAAGTCAATGTTTCTAACTTTAACTTTATCGCGGAGTCACCTAGTGCAG | 8210 fluorescence intensity (a.u.) |
| TAGTGGGTGTGGGTGGGTGGCAGGCAGAGGAGGAGCCAAGCGGAGTCACCTAGTGCAG | 11100 fluorescence intensity (a.u.) |
| TCCGTTTCCCATTTCGTCGCGACCCAAAACCCTCACCTCCCGGAGTCACCTAGTGCAG | 9520 fluorescence intensity (a.u.) |
| CGTTGACTTTTTTTCAACGTTTAATAATTTATCTTATTCACGGAGTCACCTAGTGCAG | 12900 fluorescence intensity (a.u.) |
| CGCATGCAACGTTCGGTTCTCTCGGTGCTTATCCGTAGTGCGGAGTCACCTAGTGCAG | 8770 fluorescence intensity (a.u.) |
| CACCTTACTTTACCATTTTCCATTGCGGTTACTCTTATCTCGGAGTCACCTAGTGCAG | 15400 fluorescence intensity (a.u.) |
| TTTTTTTGTGTTTCCTTCGCTTCGAATCCTTGAAATCTCCCGGAGTCACCTAGTGCAG | 8780 fluorescence intensity (a.u.) |
| ATACAGTACAGGATCCTCTAGCTTCTCCACTTCTGACTTTCGGAGTCACCTAGTGCAG | 10200 fluorescence intensity (a.u.) |
| TACAGGTGTTTTCATCAACCTTATCTCTTTTTTCTTCATGCGGAGTCACCTAGTGCAG | 8190 fluorescence intensity (a.u.) |
| CTCGGCACTATCCTCGGTCTCTGTGCTTATTGAGCCCATTCGGAGTCACCTAGTGCAG | 8910 fluorescence intensity (a.u.) |
| ATTTGGAGGTAGGAGGAGAGGTGGGGAAGGAGATTGCCAACGGAGTCACCTAGTGCAG | 8300 fluorescence intensity (a.u.) |
| CAGTATAGCAACACTTCTCTAGGCATTACTACTACATTAACGGAGTCACCTAGTGCAG | 8960 fluorescence intensity (a.u.) |
| TCTTGACAATGATACGTCTCTCTTCTTTTTTTCTCATGCCCGGAGTCACCTAGTGCAG | 8500 fluorescence intensity (a.u.) |
| AAATGCTATAGTTGTATATTGGCTTTGTTTAGTTCCATACCGGAGTCACCTAGTGCAG | 8090 fluorescence intensity (a.u.) |

| Sequence | binding signal |
| --- | --- |
| CGCGTCTATTTTTTAGTTCTTTCTTTCCCATGGTGCTTCTCGGAGTCACCTAGTGCAG | 9820 fluorescence intensity (a.u.) |
| TAATTCGGGGTTTGAAATTTTTTGTTTTTGGCGACTTTCACGGAGTCACCTAGTGCAG | 10400 fluorescence intensity (a.u.) |
| GGTGGGGATGGTGGCGAGCTCCCGCTACGCCGCCTGCACGCGGAGTCACCTAGTGCAG | 8270 fluorescence intensity (a.u.) |
| TCAGTTTTTCTAGTTCATAGGTCAGTAAATCATTTGCTATCGGAGTCACCTAGTGCAG | 8960 fluorescence intensity (a.u.) |
| GGTCTGGATATTCTTGTTGGTATTGTTCTCCCAATTAATACGGAGTCACCTAGTGCAG | 12000 fluorescence intensity (a.u.) |
| CACCATTGACTTTTTAGCATATGTTTGACCGTTCGTCTTACGGAGTCACCTAGTGCAG | 18200 fluorescence intensity (a.u.) |
| GATATTTTTCTAGTTATATACTATATTATATAATATACCCCGGAGTCACCTAGTGCAG | 8030 fluorescence intensity (a.u.) |
| TTTTTCTTCTGGGATCTTCTTAAATACTTGTTGCATATAACGGAGTCACCTAGTGCAG | 9490 fluorescence intensity (a.u.) |
| TCCGTCAGCGCTTCCATCTTCCACTCCACATCACGATCGCCGGAGTCACCTAGTGCAG | 10400 fluorescence intensity (a.u.) |
| ATTCTTTGCTTCTTGGTGCTTCCATGTCACCCTACTTTATCGGAGTCACCTAGTGCAG | 9010 fluorescence intensity (a.u.) |
| ATCATAATTATCGTTCAGTCTTTTTCATGTTTTTGTTCCTCGGAGTCACCTAGTGCAG | 11500 fluorescence intensity (a.u.) |
| GCTGTTGTTTTTTTGTCCCATGTCTCTGCACAGAGCCACACGGAGTCACCTAGTGCAG | 9510 fluorescence intensity (a.u.) |
| ACTCCGTTATATCATCGACCGTATTCGAGCTATCTCCTATCGGAGTCACCTAGTGCAG | 13700 fluorescence intensity (a.u.) |
| TAGGAGGGAAAGAGAGGGTGGGTATTTTTCCGAGTAGTTCCGGAGTCACCTAGTGCAG | 10100 fluorescence intensity (a.u.) |
| GCCCAGTTTTTGCGCGCGCGCCGCTGAATCCTCAAAAATGCGGAGTCACCTAGTGCAG | 8380 fluorescence intensity (a.u.) |
| GAAAGGCATCAAAGCTACATGTCAAATCAGCTCTAACCGTCGGAGTCACCTAGTGCAG | 8780 fluorescence intensity (a.u.) |
| GCGGTCTATGCTATCACCAAGTAGTAGTTACATCTCATCTCGGAGTCACCTAGTGCAG | 8580 fluorescence intensity (a.u.) |
| GTTTGTGTGCTTGGACTCATGTTTGTTATTGTCCATTTTACGGAGTCACCTAGTGCAG | 9550 fluorescence intensity (a.u.) |
| CAATCTAGAGCCTGGGTATTGTGTTGTTCACTCCATTCTTCGGAGTCACCTAGTGCAG | 8130 fluorescence intensity (a.u.) |
| ATCCTTCATCAGTGGTTGTGAATGACTGACTTTTTCAATCCGGAGTCACCTAGTGCAG | 8520 fluorescence intensity (a.u.) |
| GGGAGGTCTTGGAGGTCGCAGTCAGGTGGTGATGGAGGGTCGGAGTCACCTAGTGCAG | 8750 fluorescence intensity (a.u.) |

Shown tab-delimited: entries from further up
Sequence	binding signal
ATCATAATTATCGTTCAGTCTTTTTCATGTTTTTGTTCCTCGGAGTCACCTAGTGCAG	11500 fluorescence intensity (a.u.)
GCTGTTGTTTTTTTGTCCCATGTCTCTGCACAGAGCCACACGGAGTCACCTAGTGCAG	9510 fluorescence intensity (a.u.)
ACTCCGTTATATCATCGACCGTATTCGAGCTATCTCCTATCGGAGTCACCTAGTGCAG	13700 fluorescence intensity (a.u.)
TAGGAGGGAAAGAGAGGGTGGGTATTTTTCCGAGTAGTTCCGGAGTCACCTAGTGCAG	10100 fluorescence intensity (a.u.)
GCCCAGTTTTTGCGCGCGCGCCGCTGAATCCTCAAAAATGCGGAGTCACCTAGTGCAG	8380 fluorescence intensity (a.u.)
GAAAGGCATCAAAGCTACATGTCAAATCAGCTCTAACCGTCGGAGTCACCTAGTGCAG	8780 fluorescence intensity (a.u.)
GCGGTCTATGCTATCACCAAGTAGTAGTTACATCTCATCTCGGAGTCACCTAGTGCAG	8580 fluorescence intensity (a.u.)
GTTTGTGTGCTTGGACTCATGTTTGTTATTGTCCATTTTACGGAGTCACCTAGTGCAG	9550 fluorescence intensity (a.u.)
CAATCTAGAGCCTGGGTATTGTGTTGTTCACTCCATTCTTCGGAGTCACCTAGTGCAG	8130 fluorescence intensity (a.u.)
ATCCTTCATCAGTGGTTGTGAATGACTGACTTTTTCAATCCGGAGTCACCTAGTGCAG	8520 fluorescence intensity (a.u.)
GGGAGGTCTTGGAGGTCGCAGTCAGGTGGTGATGGAGGGTCGGAGTCACCTAGTGCAG	8750 fluorescence intensity (a.u.)
